Test results from US11147853B2, “Polypeptide binding to a plurality of amyloid monomers and aggregates, and use thereof” (Hangzhou Wisdom Panacea Biologics Co., Ltd., priority 2015, dated 2021).
“And” between values parts separate entries of the source, which are not always exact repeats. Identical values can stand only once. Not every detail of the peptide structures is certain; ends, links or a residue may be inferred. Where no end group is shown, it is not given here.

Key:
[1] = target: Aβ42 monomers, oligomers or fibers (Homo sapiens, UniProt P05067); assay type: binding
[2] = target: T1, amylin monomers, oligomers or fibers (Homo sapiens, UniProt P10997); assay type: binding
T1 construct: islet amyloid polypeptide (IAPP, amylin) can result in type II diabetes
T1 sequence (P10997 34-70 limits assumed): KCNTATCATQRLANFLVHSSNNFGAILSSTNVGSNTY

[3] = system: lysozyme monomers, oligomers or fibers; assay type: binding
[4] = target: insulin monomers, oligomers or fibers (Homo sapiens, UniProt P01308); assay type: binding
[5] = target: BSA (Bos taurus, UniProt P02769); assay type: binding
[6] = target: PrP monomers, oligomers or fibers (Homo sapiens, UniProt P04156); assay type: binding
[7] = target: T2, Aβ42 (Homo sapiens, UniProt P05067); assay type: binding
[8] = target: T3, amylin (Homo sapiens, UniProt P10997); assay type: binding
T3 construct: islet amyloid polypeptide (IAPP, amylin) can result in type II diabetes
T3 sequence (P10997 34-70 limits assumed): T1 sequence (P10997 34-70 limits assumed)

[9] = system: lysozyme; assay type: binding
[10] = target: T4, insulin (Homo sapiens, UniProt P01308); assay type: binding
[11] = target: T2, Aβ42; assay type: biochemical
[12] = system: lysozyme; assay type: biochemical
[13] = target: T3, amylin; assay type: biochemical
[14] = target: T4, insulin; assay type: biochemical
[15] = system: senile plaques in the brain of AD transgenic mice; assay: ThS staining of senile plaques in brain sections of AD transgenic mice; assay type: in vivo; conditions: AD+ZR group
[16] = system: senile plaques in the brain of AD transgenic mice; assay: 6E10 staining of senile plaques in hippocampus and cortex of AD transgenic mice; assay type: in vivo; conditions: AD+ZR group
[17] = system: microglia and astrocytes in the brain of AD transgenic mice; assay: Iba-1 and GFAP staining, inflammation in the brain of AD transgenic mice; assay type: in vivo; conditions: AD mice injected with ZR
[18] = system: BV-2 cells; assay: Phagocytosis of Aβ42 by BV-2 cells (Aβ ELISA of cell lysates); assay type: cell-based; conditions: Aβ42 0.1 μM, 4 h, 1:0 gave 26 ng/g
[19] = system: PD transgenic mice; assay: Pole test in PD transgenic mice; assay type: in vivo; conditions: ZR injected as in example 6
[20] = system: PD transgenic mice; assay: Hindlimb clasping test in PD transgenic mice; assay type: in vivo; conditions: scale 0 to 3; PD control 1.78, WT 0
[21] = system: HD transgenic mice; assay: Rotarod test in HD transgenic mice; assay type: in vivo; conditions: 9 trials within 3 days; HD control 176.72 s, WT 295 s
[22] = system: APP/PS1 AD transgenic mice; assay: Morris water maze test in AD transgenic mice

With “SFFNNKR [ZR, Ser-Phe-Phe-Asn-Asn-Lys-Arg]” the “OD450 for the binding to Aβ42 fibers” value [1] was 0.35, the “OD450 for the binding to Aβ42 monomers” value [1] was 0.34 and the “OD450 for the binding to Aβ42 oligomers” value [1] was 0.38. For the same substance, the “OD450 for the binding to amylin fibers” value [2] was 0.18, the “OD450 for the binding to amylin monomers” value [2] was 0.41 and the “OD450 for the binding to amylin oligomers” value [2] was 0.50. For the same substance, the “OD450 for the binding to lysozyme fibers” value [3] was 0.08, the “OD450 for the binding to lysozyme monomers” value [3] was 0.11 and the “OD450 for the binding to lysozyme oligomers” value [3] was 0.18. For the same substance, the “OD450 for the binding to insulin fibers” value [4] was 0.06, the “OD450 for the binding to insulin monomers” value [4] was 0.07 and the “OD450 for the binding to insulin oligomers” value [4] was 0.14. For the same substance, the “OD450 for the binding to negative control BSA” value [5] was 0.06, the “binding to PrP oligomers” value [6] was “can bind” and the “binding to monomers and fibers of PrP” value [6] was “cannot bind”. For the same substance, the “Dot-blot binding to Aβ42 monomers, oligomers and fibers” value [7] was “can bind to Aβ42 at all time points”, the “Dot-blot binding to amylin monomers, oligomers and fibers” value [8] was “can bind to amylin at all time points” and the “Dot-blot binding to lysozyme” value [9] was “bound only to the lysozyme oligomers”. The “Dot-blot binding to insulin” value [10] was “bound only to the insulin oligomers”, the ThT fluorescence value [11] was 22000 and 17000 and the “amount of fibers by transmission electron microscopy” value [11] was “significant reduction in the amount of fibers”. The “amount of fibers by transmission electron microscopy” value [12] was “significant reduction in the amount of fibers”, the ThT fluorescence value ([12]; pH 2.5) was 220000 and 170000 and the ThT fluorescence value [13] was 41000 and 43000. For the same substance, the “effect on aggregation by transmission electron microscopy” value [13] was “no significant effect”, the ThT fluorescence value [14] was 305000 and 310000 and the “effect on aggregation by transmission electron microscopy” value [14] was “no significant effect”. For the same substance, the “senile plaque area in brain sections (ThS)” value ([15]; PBS-injected group 1.7%) was 0.3%, the “number of senile plaques in brain sections (ThS)” value ([15]; PBS-injected group 17 per mm^2) was 4 per mm^2 and the “area of senile plaques in the hippocampus (6E10)” value ([16]; PBS 2.4%) was 0.7%. The “area of senile plaques in the cortex (6E10)” value ([16]; PBS 2.9%) was 1.3%, the “number of senile plaques in the hippocampus (6E10)” value ([16]; PBS 18 per mm^2) was 7 per mm^2 and the “number of senile plaques in the cortex (6E10)” value ([16]; PBS 30 per mm^2) was 9 per mm^2. For the same substance, the “astrocytes, share of the area of brain section (GFAP)” value ([17]; PBS 4.9%) was 1.8%, the “microglia, share of the area of brain section (Iba-1)” value ([17]; PBS 5.7%) was 1.2% and the “Aβ42 protein concentration in BV-2 cells” value ([18]; ZR 5 μM (Aβ42:ZR=1:50)) was 28 ng/g. The “Aβ42 protein concentration in BV-2 cells” value ([18]; ZR 10 μM (Aβ42:ZR=1:100)) was 33 ng/g, the “Aβ42 protein concentration in BV-2 cells” value ([18]; ZR 20 μM (Aβ42:ZR=1:200)) was 38 ng/g and the “time to turn around in pole test” value ([19]; PD control 21.87 s, WT 1.38 s) was 13.9 s. For the same substance, the “time to descend in pole test” value ([19]; PD control 45.48 s, WT 6.02 s) was 19.74 s, the hindlimb clasping score [20] was 1.08 and the latency on rotarod [21] was 233.64 s. The “latency to find the platform during training vs AD control mice” value ([22]; 3rd, 4th and 5th days of training, ZR 1 mg/ml, 5 μl intracerebroventricular every 7 days, 4 injections) was “significantly shorter”, the “number of platform crossing” value ([22]; ZR 5 μl of 1 mg/ml i.c.v. x4, AD control 1.8, WT 4.2) was 3.7 and the “time spent in target quadrant” value ([22]; ZR 5 μl of 1 mg/ml i.c.v. x4, AD control 11 s, WT 20 s) was 19 s. For the same substance, the “latency to find platform after removing the platform (probe trial)” value ([22]; ZR 5 μl of 1 mg/ml i.c.v. x4, AD control 24 s, WT 16 s) was 17 s.
